According to paper doi:10.1101/2022.09.15.508097:
Results are given in words; binding and its absence hold for the method and conditions named. Some binding calls cover weakened binding; strength is not graded here. For some of these results: Where a sequence is shown, tags or fusion partners need not be part of it.

By UniProt entry, the sequences of proteins in these tests, tags left out. Where a name states a change or a piece, a line headed by the entry shows the natural chain unless it says otherwise.
UniProt Q96KQ7: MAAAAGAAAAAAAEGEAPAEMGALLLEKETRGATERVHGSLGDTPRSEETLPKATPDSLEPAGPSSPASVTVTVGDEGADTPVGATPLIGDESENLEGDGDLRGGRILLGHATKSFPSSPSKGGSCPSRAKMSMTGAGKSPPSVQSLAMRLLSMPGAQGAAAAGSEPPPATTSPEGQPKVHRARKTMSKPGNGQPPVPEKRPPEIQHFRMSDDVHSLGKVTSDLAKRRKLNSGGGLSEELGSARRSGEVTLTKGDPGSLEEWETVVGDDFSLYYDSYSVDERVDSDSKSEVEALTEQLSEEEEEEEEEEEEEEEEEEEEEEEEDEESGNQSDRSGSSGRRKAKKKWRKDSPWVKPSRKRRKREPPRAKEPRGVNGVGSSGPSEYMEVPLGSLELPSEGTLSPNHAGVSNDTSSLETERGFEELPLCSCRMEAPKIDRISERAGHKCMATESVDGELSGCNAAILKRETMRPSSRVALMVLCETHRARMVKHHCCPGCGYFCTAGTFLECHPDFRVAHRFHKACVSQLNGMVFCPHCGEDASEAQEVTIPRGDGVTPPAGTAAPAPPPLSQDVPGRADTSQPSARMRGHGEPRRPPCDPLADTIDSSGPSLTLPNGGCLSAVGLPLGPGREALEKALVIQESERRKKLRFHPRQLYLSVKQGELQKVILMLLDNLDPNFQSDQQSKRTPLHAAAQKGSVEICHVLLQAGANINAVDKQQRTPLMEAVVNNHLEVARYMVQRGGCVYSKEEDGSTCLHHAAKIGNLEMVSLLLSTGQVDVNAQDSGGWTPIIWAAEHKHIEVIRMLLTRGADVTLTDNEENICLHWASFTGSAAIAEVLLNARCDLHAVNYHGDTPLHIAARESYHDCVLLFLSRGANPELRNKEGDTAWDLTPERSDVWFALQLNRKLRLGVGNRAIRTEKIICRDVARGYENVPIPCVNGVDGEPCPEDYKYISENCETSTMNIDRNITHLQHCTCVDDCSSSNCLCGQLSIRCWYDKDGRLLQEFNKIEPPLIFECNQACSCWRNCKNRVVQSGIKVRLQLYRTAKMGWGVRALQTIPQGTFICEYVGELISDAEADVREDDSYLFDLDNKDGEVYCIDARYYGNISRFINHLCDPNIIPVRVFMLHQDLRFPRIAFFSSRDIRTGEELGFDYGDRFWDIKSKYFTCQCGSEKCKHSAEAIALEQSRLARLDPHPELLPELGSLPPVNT
UniProt P83916: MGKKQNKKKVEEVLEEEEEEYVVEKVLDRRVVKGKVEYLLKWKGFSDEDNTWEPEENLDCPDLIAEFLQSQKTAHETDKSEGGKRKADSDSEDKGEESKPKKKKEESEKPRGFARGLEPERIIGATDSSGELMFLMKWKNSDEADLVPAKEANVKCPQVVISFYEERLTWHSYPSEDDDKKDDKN

Key:
Experiment in all cases: fluorescence microscopy-based interaction-trap
[1] = target: T1, TetR-EYFP-ZNF518A^WT (human) (UniProt Q6AHZ1)
T1 sequence: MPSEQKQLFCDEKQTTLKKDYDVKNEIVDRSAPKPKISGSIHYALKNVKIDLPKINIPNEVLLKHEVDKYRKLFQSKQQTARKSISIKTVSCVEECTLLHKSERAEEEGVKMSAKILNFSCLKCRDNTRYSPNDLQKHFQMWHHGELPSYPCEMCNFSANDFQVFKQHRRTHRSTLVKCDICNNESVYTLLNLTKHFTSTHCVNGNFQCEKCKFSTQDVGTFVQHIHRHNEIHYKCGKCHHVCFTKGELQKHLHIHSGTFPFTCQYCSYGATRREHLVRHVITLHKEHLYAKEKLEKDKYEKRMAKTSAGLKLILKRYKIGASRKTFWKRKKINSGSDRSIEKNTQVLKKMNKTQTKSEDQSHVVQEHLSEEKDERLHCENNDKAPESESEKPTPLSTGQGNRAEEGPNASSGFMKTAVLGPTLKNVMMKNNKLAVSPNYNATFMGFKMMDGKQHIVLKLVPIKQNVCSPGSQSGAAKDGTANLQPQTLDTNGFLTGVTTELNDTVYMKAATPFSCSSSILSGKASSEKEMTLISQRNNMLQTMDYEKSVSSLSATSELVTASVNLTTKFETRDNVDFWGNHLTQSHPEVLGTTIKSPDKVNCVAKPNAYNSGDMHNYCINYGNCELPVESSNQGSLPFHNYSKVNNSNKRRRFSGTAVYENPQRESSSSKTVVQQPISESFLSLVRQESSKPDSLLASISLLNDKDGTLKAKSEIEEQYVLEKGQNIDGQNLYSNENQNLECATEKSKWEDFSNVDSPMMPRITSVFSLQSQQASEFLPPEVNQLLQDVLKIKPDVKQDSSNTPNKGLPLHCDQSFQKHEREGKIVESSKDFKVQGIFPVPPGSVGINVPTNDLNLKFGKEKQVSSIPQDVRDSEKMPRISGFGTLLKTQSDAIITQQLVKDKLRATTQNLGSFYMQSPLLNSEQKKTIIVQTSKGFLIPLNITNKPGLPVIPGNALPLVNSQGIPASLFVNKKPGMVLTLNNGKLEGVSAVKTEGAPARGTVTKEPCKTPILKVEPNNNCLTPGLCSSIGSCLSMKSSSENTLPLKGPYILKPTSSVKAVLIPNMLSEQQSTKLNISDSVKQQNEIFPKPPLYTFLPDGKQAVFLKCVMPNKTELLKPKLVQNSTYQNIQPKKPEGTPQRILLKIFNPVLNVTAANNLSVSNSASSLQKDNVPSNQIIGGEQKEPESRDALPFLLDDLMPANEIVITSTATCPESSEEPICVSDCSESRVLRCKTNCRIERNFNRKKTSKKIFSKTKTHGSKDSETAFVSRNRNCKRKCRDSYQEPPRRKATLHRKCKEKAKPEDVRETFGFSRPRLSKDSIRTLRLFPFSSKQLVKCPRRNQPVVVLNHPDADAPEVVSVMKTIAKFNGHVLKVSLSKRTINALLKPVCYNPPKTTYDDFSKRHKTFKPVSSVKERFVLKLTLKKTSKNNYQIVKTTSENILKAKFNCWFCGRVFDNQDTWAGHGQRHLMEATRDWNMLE

[2] = target: TetR-EYFP-ZNF518B^WT (human) (UniProt Q9C0D4)
[3] = target: TetR-EYFP-ZNF518B^344–1074 (human) (UniProt Q9C0D4)
[4] = target: TetR-EYFP-ZNF518B^878–987 (human) (UniProt Q9C0D4)
[5] = target: TetR-EYFP-ZNF518B^770–987 (human) (UniProt Q9C0D4)
[6] = target: TetR-EYFP-ZNF518B^344–987 (human) (UniProt Q9C0D4)
[7] = target: TetR-EYFP-ZNF518B^878–1074 (human) (UniProt Q9C0D4)
[8] = target: TetR-EYFP-ZNF518B^555–1074 (human) (UniProt Q9C0D4)
[9] = target: T2, TetR-EYFP-ZNF518B^555–769 (human) (UniProt Q9C0D4)
T2 sequence: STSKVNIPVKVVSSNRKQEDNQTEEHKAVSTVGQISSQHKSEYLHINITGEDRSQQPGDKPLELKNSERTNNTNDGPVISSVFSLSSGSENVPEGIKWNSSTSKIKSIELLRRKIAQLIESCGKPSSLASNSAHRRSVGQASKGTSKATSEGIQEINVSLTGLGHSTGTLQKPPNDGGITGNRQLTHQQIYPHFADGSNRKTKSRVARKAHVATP

[10] = target: T3, TetR-EYFP-ZNF518B^344–769 (human) (UniProt Q9C0D4)
T3 sequence: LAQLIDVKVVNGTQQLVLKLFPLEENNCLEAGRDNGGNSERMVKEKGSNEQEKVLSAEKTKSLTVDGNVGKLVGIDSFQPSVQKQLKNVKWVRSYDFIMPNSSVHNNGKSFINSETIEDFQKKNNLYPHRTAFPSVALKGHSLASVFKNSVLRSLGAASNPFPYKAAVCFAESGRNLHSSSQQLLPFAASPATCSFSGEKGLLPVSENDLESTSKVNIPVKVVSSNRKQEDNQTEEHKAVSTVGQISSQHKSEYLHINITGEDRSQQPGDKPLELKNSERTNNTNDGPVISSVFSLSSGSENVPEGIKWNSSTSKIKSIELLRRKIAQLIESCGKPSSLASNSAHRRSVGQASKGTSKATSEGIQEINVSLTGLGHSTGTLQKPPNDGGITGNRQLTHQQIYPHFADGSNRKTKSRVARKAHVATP

Halo-G9a^291–1210 (from UniProt Q96KQ7 291-1210) (domain or fragment)
binding [1]: binds
binding [2]: binds

Halo-G9a^1–545 (from UniProt Q96KQ7 1-545) (domain or fragment)
binding [1]: binds
binding [2]: binds

Halo-G9a^1–290 (from UniProt Q96KQ7 1-290) (domain or fragment)
binding [1]: no binding
binding [2]: no binding

Halo-HP1β^(1–92), chromo domain (from UniProt P83916 1-92) (domain or fragment)
binding [3]: no binding
binding [4]: no binding
binding [5]: no binding
binding [6]: no binding
binding [7]: no binding
binding [8]: no binding

Halo-HP1β (from UniProt P83916 1-185)
binding [9]: binds weakly
binding [10]: binds weakly

Halo-HP1β^93–185, chromo-shadow domain (from UniProt P83916 93-185) (domain or fragment)
binding [3]: binds
binding [4]: binds
binding [5]: binds
binding [6]: binds
binding [7]: binds
binding [8]: binds

Halo-G9a^291–545 (from UniProt Q96KQ7 291-545) (domain or fragment)
binding [1]: binds
binding [2]: binds
